Measured values: patent publication US20050220788A1
No constants are given. Whether binding was seen depends on the method and setting. Some entries that bind do so weakly or less than the wild type. For part of these data: Where a sequence is shown, tags or fusion partners need not be part of it.

Amino acid sequences for entries named in this document (tags omitted). A change or cut given only in a name is not applied to a line headed by its entry.
UniProt P69905: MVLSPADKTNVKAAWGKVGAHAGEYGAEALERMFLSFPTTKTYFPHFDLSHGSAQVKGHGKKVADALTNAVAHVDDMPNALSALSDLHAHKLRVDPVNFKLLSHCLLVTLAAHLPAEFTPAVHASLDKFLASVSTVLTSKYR
UniProt P00738: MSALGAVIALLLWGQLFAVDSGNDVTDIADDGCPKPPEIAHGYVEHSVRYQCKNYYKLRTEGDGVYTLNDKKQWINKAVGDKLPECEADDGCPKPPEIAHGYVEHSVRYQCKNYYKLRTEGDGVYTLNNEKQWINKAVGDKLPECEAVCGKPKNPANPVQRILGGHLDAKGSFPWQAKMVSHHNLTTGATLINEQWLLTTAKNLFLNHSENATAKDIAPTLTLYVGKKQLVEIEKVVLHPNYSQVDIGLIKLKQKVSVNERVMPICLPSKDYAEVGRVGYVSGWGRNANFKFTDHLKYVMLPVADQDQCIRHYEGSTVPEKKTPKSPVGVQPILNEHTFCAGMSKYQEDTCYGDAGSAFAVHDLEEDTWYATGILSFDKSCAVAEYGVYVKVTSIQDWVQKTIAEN

Legend:
[1] = molecular target: T1, GST-D1 (GST fusion of the LPXTGp5 D1 domain) (Staphylococcus aureus) (UniProt Q2FG07); test: ELISA, D1 domain protein coated, haemoglobin added, anti-haemoglobin mAb detection
T1 sequence: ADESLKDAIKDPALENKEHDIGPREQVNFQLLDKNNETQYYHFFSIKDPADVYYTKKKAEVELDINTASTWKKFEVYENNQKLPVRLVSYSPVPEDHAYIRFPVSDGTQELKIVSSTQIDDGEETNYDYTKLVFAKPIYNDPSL

[2] = molecular target: T2, GST-D2 (GST fusion of the LPXTGp5 D2 domain) (Staphylococcus aureus) (UniProt Q2FG07); test: ELISA, D2 domain protein coated, haemoglobin added, anti-haemoglobin mAb detection
T2 sequence: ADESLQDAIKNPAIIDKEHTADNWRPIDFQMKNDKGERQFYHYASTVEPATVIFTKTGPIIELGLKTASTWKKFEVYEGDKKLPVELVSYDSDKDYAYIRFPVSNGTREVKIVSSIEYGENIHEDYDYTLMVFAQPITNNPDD

[3] = molecular target: recombinant LPXTGp5 (StrepII-tagged, full-length) (Staphylococcus aureus COL) (UniProt Q2FG07); test: ELISA, rHarA coated, ligands added in increasing amounts, anti-haptoglobin mAb detection
[4] = molecular target: T2, GST-D2 (GST fusion of the LPXTGp5 D2 domain) (Staphylococcus aureus); test: ELISA, D2 domain protein coated, ligands added in increasing amounts, anti-haptoglobin or anti-haemoglobin mAb; same result in the reverse format (data not shown)
[5] = molecular target: recombinant LPXTGp5 (StrepII-tagged, full-length) (Staphylococcus aureus COL) (UniProt Q2FG07); test: ELISA, recombinant HarA coated, anti-haptoglobin mAb detection
[6] = molecular target: T1, GST-D1 (GST fusion of the LPXTGp5 D1 domain) (Staphylococcus aureus); test: ELISA, D1 domain protein coated, ligands added in increasing amounts, anti-haptoglobin or anti-haemoglobin mAb; same result in the reverse format (data not shown)

Measured: binding

haemoglobin (Sigma) (from UniProt P69905 2-142; P68871 2-147) (ligand)
binds: [1] | [2]

haptoglobin-haemoglobin complexes (from UniProt P00738 19-406; P00738 19-406; P69905 2-142; P68871 2-147)
binds: [3] | [4] | [5] | [6]
